Molecules are shown by their SMILES. Structures can show the parent of a compound that is named as a salt. This is one part of the list. Single values are uncertain here, since repeats match poorly.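 Test system: Schistosoma mansoni schistosomula, roughly 40 per well, imaged in bright field over time and compared with wells given 0.1% DMSO. Distance read-out: the paper calls a drug a hit when its Mahalanobis distance is at least 2.47, three standard deviations above the DMSO control mean. Degeneracy is the share of worms classified opaque.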

The test has as its system Schistosoma mansoni schistosomula. The test is described as follows: degeneracy (percent of somules classified as degenerate/opaque); higher = more parasite degeneration/death; extreme values may be limits of the assay. To be noted: 10 µM; 72 h.
Consider `C[C@@H]1CC[C@H]2[C@@H](C)C(=O)O[C@@H]3O[C@@]4(C)CC[C@@H]1[C@]32OO4` [Artemisinin], for which the degeneracy is 6.67%.

Turning to `COc1cc([C@@H]2c3cc4c(cc3[C@H](O)[C@H]3COC(=O)[C@H]23)OCO4)cc(OC)c1OC` [podofilox], the degeneracy worked out at 0%.

For `CC(CC(C(N)=O)(c1ccccc1)c1ccccc1)N(C)C` (configuration not stated) [Aminopentamide Sulfate], the degeneracy was 0%.

In turn, `OC[C@@H](O)[C@H]1O[C@@H]2O[C@H](C(Cl)(Cl)Cl)O[C@@H]2[C@H]1O` [Chloralose] had a degeneracy of 3.12%.

With `C[N+]12CCC(CC1)C(OC(=O)C(O)(c1ccccc1)c1ccccc1)C2` (configuration not stated) [Clidinium Bromide], the degeneracy came out at 0%.

Molecule `CO[C@]12C[C@@H](COC(=O)c3cncc(Br)c3)CN(C)[C@@H]1Cc1cn(C)c3cccc2c13` [Nicergoline] showed a degeneracy of 35.3%.

On to `COC(=O)C(c1ccccc1)C1CCCCN1` (configuration not stated) [Methylphenidate Hydrochloride], for which the degeneracy was 2.86%.

Regarding `CCC(C)(C)O` [Amylene Hydrate], the degeneracy is 6.67%.

Molecule `C[C@]12Cc3c[nH]nc3C[C@@H]1CC[C@@H]1[C@@H]2CC[C@@]2(C)[C@H]1CC[C@]2(C)O` [Stanozolol] yielded a degeneracy of 22.2%.

In the case of `COc1ccc(CCN2CCC(Nc3nc4ccccc4n3Cc3ccc(F)cc3)CC2)cc1` [Astemizole], the degeneracy was 100%.

`Oc1cc(Cl)ccc1Oc1ccc(Cl)cc1Cl` [Triclosan] displayed a degeneracy of 100%.

Regarding `CCC1(CC)C(=O)C=CNC1=O` [Pyrithyldione], the degeneracy came out at 15.8%.

`COC(=O)C1=CCCN(C)C1` [Arecoline Hydrobromide] came in with a degeneracy of 2.17%.

For the molecule `CC(C)(C)NCC(O)c1cc(Cl)c(N)c(Cl)c1` (configuration not stated) [Clenbuterol], the degeneracy amounted to 7.14%.

Take `CNCC(=O)c1ccc(O)c(O)c1` [Adrenolone Hydrochloride]: the degeneracy was determined as 2.78%.

Take `O=C(NC(=O)c1c(F)cccc1F)Nc1cc(Cl)c(OC(F)(F)C(F)C(F)(F)F)cc1Cl` (configuration not stated) [Lufenuron]: the degeneracy is 26.9%.

The molecule `CCn1cc(C(=O)O)c(=O)c2cc3c(cc21)OCO3` [Oxolinic Acid] displayed a degeneracy of 5.88%.

`C[N+]1(C)[C@@H]2C[C@@H](OC(=O)[C@H](CO)c3ccccc3)C[C@H]1[C@@H]1O[C@@H]12` [Methscopolamine Bromide] came in with a degeneracy of 3.85%.

In the case of `CCN(C)C(=O)Oc1cccc([C@H](C)N(C)C)c1` [Rivastigmine Tartrate], the degeneracy came to 7.69%.

Take `C[C@@H]1O[C@@H](O[C@H]2C[C@@H](O)[C@]3(CO)[C@H]4[C@H](O)C[C@]5(C)[C@@H](C6=CC(=O)OC6)CC[C@]5(O)[C@@H]4CC[C@]3(O)C2)[C@H](O)[C@H](O)[C@H]1O` [Ouabain]: the degeneracy came out at 71.4%.

The molecule `N=C1NC(=O)N2CC12` (configuration not stated) [Imexon] yielded a degeneracy of 13.2%.

`C[N+]1([O-])[C@@H]2CC[C@H]1C[C@@H](OC(=O)C(CO)c1ccccc1)C2` (some centres not stated) [Atropine Oxide]: the degeneracy was 6.82%.

For `COc1ccc(O)c(C(C)(C)C)c1.COc1ccc(O)cc1C(C)(C)C` [Butylated Hydroxyanisole], the degeneracy came out at 100%.

In turn, `Nc1ccncc1` [4-aminopyridine] displayed a degeneracy of 9.68%.

`COc1ccc(C(=O)N2CCCC2=O)cc1` [Aniracetam] yielded a degeneracy of 3.57%.

Molecule `O=C(O)CCCc1ccc(N(CCCl)CCCl)cc1` [Chlorambucil] registered a degeneracy of 8.57%.

The molecule `CC[C@@H](C(N)=O)N1CCCC1=O` [Levetiracetam] yielded a degeneracy of 7.69%.

Take `O=C1C=C2C=C[C@@H]3C[C@@]2(O1)[C@H]1CCCCN31` [securinine]: the degeneracy is 100%.

`CCN[C@@H](C)Cc1cccc(C(F)(F)F)c1` [Dexfenfluramine] came in with a degeneracy of 0%.

`NC(=O)C[S@@+]([O-])C(c1ccccc1)c1ccccc1` [Armodafinil] returned a degeneracy of 2.78%.

As for `CC(C)=CC1C(C(=O)OCc2cccc(Oc3ccccc3)c2)C1(C)C` (configuration not stated) [Phenothrin], the degeneracy was 14.9%.

Take `COc1cccc(C2(O)CCCCC2CN(C)C)c1` (configuration not stated) [Tramadol]: the degeneracy worked out at 18.9%.

As to `COc1cccc(C2(O)CCCCC2CN(C)C)c1` (configuration not stated) [Tramadol Hydrochloride], the degeneracy was found to be 3.7%.

With `CC(CCc1ccccc1)NC(C)C(O)c1ccc(O)cc1` (configuration not stated) [Nylidrin], the degeneracy was found to be 9.68%.

On to `CN1C[C@H](C(=O)N[C@]2(C)O[C@@]3(O)[C@@H]4CCCN4C(=O)[C@H](Cc4ccccc4)N3C2=O)C[C@@H]2c3cccc4[nH]cc(c34)C[C@H]21` [Dihydroergotamine], for which the degeneracy amounted to 100%.

Molecule `CCCN1C[C@H](CSC)C[C@@H]2c3cccc4[nH]cc(c34)C[C@H]21` [Pergolide] registered a degeneracy of 15%.

Take `CNc1ccc(C(=O)CC(O)CCC(C)C2OC(=O)CC(O)CC(=O)CC(O)CC(O)CC(O)CC(O)CC3(O)CC(O)C(C(=O)OC)C(CC(O[C@@H]4O[C@H](C)[C@@H](O)[C@H](N)[C@@H]4O)/C=C/C=C/C=C/C=C/C=C/C=C/C=C/C2C)O3)cc1.COC(=O)C1C(O)CC2(O)CC(O)CC(O)CC(O)CC(O)CC(=O)CC(O)CC(=O)OC(C(C)CCC(O)CC(=O)c3ccc(N)cc3)C(C)/C=C/C=C/C=C/C=C/C=C/C=C/C=C/C(O[C@@H]3O[C@H](C)[C@@H](O)[C@H](N)[C@@H]3O)CC1O2` (some centres not stated) [mepartricin]: the degeneracy was determined as 5.88%.

The molecule `Cc1ncc(CNC(=O)N(CCCl)N=O)c(N)n1` [Nimustine] gave a degeneracy of 9.38%.

In turn, `C=C(C)[C@H]1CN[C@H](C(=O)O)[C@H]1CC(=O)O` [Kainic Acid] returned a degeneracy of 0%.

In turn, `CC[C@H]1CN2CC[C@H]1C[C@@H]2[C@@H](O)c1ccnc2ccc(OC)cc12` [Hydroquinidine] showed a degeneracy of 28.6%.

For `COc1ccc(CN2CCNCC2)c(OC)c1OC` [Trimetazidine], the degeneracy was determined as 0%.

`CC(C)N(CCC(C(N)=O)(c1ccccc1)c1ccccn1)C(C)C` (configuration not stated) [Disopyramide] showed a degeneracy of 0%.

`Nc1nc(N)nc(NC2CC2)n1` [Cyromazine] gave a degeneracy of 5.56%.

For the molecule `O=C1CN=C(c2ccccc2Cl)c2cc([N+](=O)[O-])ccc2N1` [Clonazepam], the degeneracy was found to be 0%.

As to `COc1ccc2c(c1)[C@]13CCCC[C@@H]1[C@H](C2)N(C)CC3` [Dextromethorphan Hydrobromide], the degeneracy turned out to be 32.4%.

Consider `CC(Cc1ccc(O)cc1)NCC(O)c1cc(O)cc(O)c1` (configuration not stated) [Fenoterol Hydrobromide], for which the degeneracy amounted to 6.67%.

For `C=CCN=C=S` [Allylisothiocyanate], the degeneracy came out at 100%.

`C=CC[C@]1(O)CC[C@H]2[C@@H]3CCC4=CC(=O)CCC4=C3C=C[C@@]21C` [Altrenogest] displayed a degeneracy of 21.1%.

Turning to `CC(C)CC(N(C)C)C1(c2ccc(Cl)cc2)CCC1` (configuration not stated) [Sibutramine], the degeneracy amounted to 28.6%.

In the case of `CNC1(c2ccccc2Cl)CCCCC1=O` (configuration not stated) [Ketamine], the degeneracy stood at 11.1%.

`CCN(CC)C(=O)N[C@H]1C=C2c3cccc4[nH]cc(c34)C[C@H]2N(C)C1` [Lisuride]: the degeneracy was 72.7%.

`O=C([O-])Cc1ccccc1.[Na+]` [Sodium Phenylacetate] gave a degeneracy of 3.03%.
